Data source: PubChem BioAssay AID686938 (Drosophila RNAi Screening Center, 2013)
In all, the deposit lists about 23,000 reagents; below is a random part of those with a known target gene and a result. Over the whole deposit, 75 (0.33%) were called active. 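Raw plate signals without normalisation; calls rest on plate z-scores that were not deposited; ratio present for only 364 wells.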 A plus sign joins genes that one reagent is predicted to hit. Not stated in the record: the dose of the treatment.

Aim: 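Knock-downs reducing store-operated calcium influx in Drosophila cells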 (primary screen)
Cells: Drosophila S2R+ cells
Knock-down reagent: long dsRNA against Drosophila genes, about 0.25 µg dsRNA per well, roughly 10,000 cells
Timing: 5 days of knock-down before the calcium assay
Conditions: thapsigargin (SERCA pump blocker) to empty calcium stores; entry signal taken 4 min after adding it
Detection: 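Duplicate raw fluo-4 intensities per well from a plate reader, at rest and four minutes after thapsigargin emptied calcium stores; entry-to-rest ratio filled for only some wells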
Reading the numbers: calcium entry signal: higher = stronger calcium signal after store depletion; resting calcium signal: higher = higher resting calcium signal
Hit rule: 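Hit if the duplicate-averaged plate z-score for entry over resting signal is under −3; wells with weak total dye signal (Fmax z < −2) or more than 5 off-targets removed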
Meaning of the calls: active = strongly reduced calcium entry; inactive = no strong reduction

| gene knocked down | DRSC id | calcium entry signal, replicate 1 (fluorescence units) | calcium entry signal, replicate 2 (fluorescence units) | resting calcium signal, replicate 1 (fluorescence units) | resting calcium signal, replicate 2 (fluorescence units) | Call |
| --- | --- | --- | --- | --- | --- | --- |
| CG11373 | DRSC12170 | 4.00e7 | 3.04e7 | 2.07e7 | 1.46e7 | inactive |
| CheB53b (Chemosensory protein B 53b) | DRSC05613 | 2.53e7 | 4.29e7 | 1.24e7 | 1.89e7 | inactive |
| CG1620 | DRSC06603 | 3.85e7 | – | 2.03e7 | – | inactive |
| Cyp313a3 (Cytochrome P450 313a3) | DRSC16626 | 4.01e7 | 2.79e7 | 2.04e7 | 1.50e7 | inactive |
| lncRNA:CR32368 (long non-coding RNA:CR32368) | DRSC08899 | 4.62e7 | 4.44e7 | 2.31e7 | 1.97e7 | inactive |
| CG3104 | DRSC00567 | 2.58e7 | 3.77e7 | 1.26e7 | 1.81e7 | inactive |
| PolE1 (DNA polymerase epsilon subunit 1) | DRSC16112 | 3.34e7 | 3.39e7 | 1.46e7 | 1.41e7 | inactive |
| CG34178 + CG34177 | DRSC00351 | 2.69e7 | 2.50e7 | 1.39e7 | 1.19e7 | inactive |
| CG18258 | DRSC19798 | 4.61e7 | 3.34e7 | 2.34e7 | 1.60e7 | inactive |
| lncRNA:CR43613 (long non-coding RNA:CR43613) | DRSC13943 | 4.25e7 | 3.87e7 | 1.86e7 | 2.01e7 | inactive |
| par-1 | DRSC05792 | 1.74e7 | 4.65e7 | 1.02e7 | 2.31e7 | inactive |
| par-1 | DRSC06098 | 4.97e7 | 6.70e7 | 2.23e7 | 3.04e7 | inactive |
| par-1 | DRSC06616 | 3.18e7 | 2.90e7 | 1.45e7 | 1.42e7 | inactive |
| par-1 | DRSC07660 | 3.11e7 | 4.82e7 | 1.69e7 | 2.54e7 | inactive |
| par-1 | DRSC07661 | 5.72e7 | 7.05e7 | 2.44e7 | 3.21e7 | inactive |
| CheB93b (Chemosensory protein B 93b) | DRSC21762 | 3.55e7 | 3.10e7 | 2.06e7 | 1.46e7 | inactive |
| CG30058 + CG34235 + CG34312 | DRSC05401 | 5.49e7 | 5.08e7 | 3.01e7 | 2.13e7 | inactive |
| seq (sequoia) | DRSC06863 | 2.50e7 | 3.89e7 | 1.36e7 | 1.73e7 | inactive |
| CG4586 | DRSC18373 | 4.29e7 | 4.52e7 | 2.00e7 | 2.08e7 | inactive |
| ND5 (retired record) | DRSC21281 | 4.98e7 | 4.63e7 | 2.45e7 | 1.98e7 | inactive |
| CG6470 | DRSC19994 | 3.47e7 | 3.38e7 | 1.64e7 | 1.47e7 | inactive |
| CG42552 (retired record) | DRSC11512 | 3.53e7 | 3.68e7 | 1.85e7 | 1.55e7 | inactive |
| Prx6a (Peroxiredoxin 6a) | DRSC00565 | 3.90e7 | – | 2.17e7 | – | inactive |
| CG17658 | DRSC04292 | 4.33e7 | 4.73e7 | 2.16e7 | 2.23e7 | inactive |
| RpS5a (Ribosomal protein S5a) | DRSC20282 | 1.52e7 | 2.17e7 | 9.41e6 | 1.24e7 | inactive |
| CG8728 | DRSC07251 | 3.73e7 | 2.60e7 | 1.65e7 | 1.30e7 | inactive |
| CG18294 | DRSC09891 | 2.89e7 | 5.31e7 | 1.42e7 | 2.19e7 | inactive |
| CG15754 | DRSC19719 | 4.07e7 | 4.62e7 | 2.02e7 | 1.95e7 | inactive |
| CG15876 | DRSC08484 | 2.73e7 | 3.13e7 | 1.24e7 | 1.33e7 | inactive |
| Uhg3 (U snoRNA host gene 3) | DRSC22963 | 3.97e7 | 3.24e7 | 1.93e7 | 1.25e7 | inactive |
| CG5823 | DRSC15881 | 3.29e7 | 3.54e7 | 1.63e7 | 1.61e7 | inactive |
| CG4768 | DRSC19917 | 2.32e7 | 5.09e7 | 1.10e7 | 2.14e7 | inactive |
| Vps37B (Vacuolar protein sorting 37B) | DRSC12165 | 2.59e7 | 2.92e7 | 1.33e7 | 1.43e7 | inactive |
| ms(2)34Fe (male sterile (2) 34Fe) | DRSC01905 | 4.62e7 | 3.02e7 | 2.09e7 | 1.43e7 | inactive |
| PVRAP (PVR adaptor protein) | DRSC09966 | 1.81e7 | 3.04e7 | 9.21e6 | 1.20e7 | inactive |
| PVRAP (PVR adaptor protein) | DRSC10577 | 1.66e7 | 2.85e7 | 8.09e6 | 1.30e7 | inactive |
| CG12024 | DRSC08229 | 3.83e7 | 2.93e7 | 1.69e7 | 1.56e7 | inactive |
| Rrp42 | DRSC07161 | 2.37e7 | 2.95e7 | 1.43e7 | 1.70e7 | inactive |
| RpL4 (Ribosomal protein L4) | DRSC16833 | 1.72e7 | 1.45e7 | 1.21e7 | 9.62e6 | inactive |
| tef (teflon) | DRSC07301 | 3.81e7 | 4.19e7 | 1.86e7 | 1.90e7 | inactive |
| tef (teflon) | DRSC22041 | 3.16e7 | 3.86e7 | 1.49e7 | 2.18e7 | inactive |
